These are yes or no findings as the source states them, for the method shown. Where a sequence is shown, tags or fusion partners need not be part of it.

The record followed here is paper PMC5028754.

This experiment has as its target T1, Ddi1 UBL with an N-terminal His-tag (residues 1-80) (S. cerevisiae) (UniProt P40087).
T1 sequence (chain, 15N-labelled): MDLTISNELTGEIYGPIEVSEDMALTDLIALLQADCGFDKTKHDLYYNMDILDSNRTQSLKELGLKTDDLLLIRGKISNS
Briefly: NMR titration; 0.2 mM 15N-labeled Ddi1 UBL, 2D 15N/1H HSQC, two-fold molar excess (0.4 mM) of ligand added; 50 mM sodium phosphate, pH 7.4, 0.5% glycerol, 25 °C; minimal shift approach; both purified.

With Rpn10, the binding entry is “no binding (tested: 0.4 mM (two-fold molar excess))”.
